Laboratory results published in publication PMC7310436, “JP3, an antiangiogenic peptide, inhibits growth and metastasis of gastric cancer through TRIM25/SP1/MMP2 axis” (Journal of Experimental & Clinical Cancer Research : CR, 2020).
Results are given in words; binding and its absence hold for the method and conditions named. Binding seen in cells or lysates may run through a third protein. Some entries that bind do so weakly or less than the wild type.

Sequences of proteins named here, by UniProt entry; tags and fusion partners are left off.
UniProt P08047: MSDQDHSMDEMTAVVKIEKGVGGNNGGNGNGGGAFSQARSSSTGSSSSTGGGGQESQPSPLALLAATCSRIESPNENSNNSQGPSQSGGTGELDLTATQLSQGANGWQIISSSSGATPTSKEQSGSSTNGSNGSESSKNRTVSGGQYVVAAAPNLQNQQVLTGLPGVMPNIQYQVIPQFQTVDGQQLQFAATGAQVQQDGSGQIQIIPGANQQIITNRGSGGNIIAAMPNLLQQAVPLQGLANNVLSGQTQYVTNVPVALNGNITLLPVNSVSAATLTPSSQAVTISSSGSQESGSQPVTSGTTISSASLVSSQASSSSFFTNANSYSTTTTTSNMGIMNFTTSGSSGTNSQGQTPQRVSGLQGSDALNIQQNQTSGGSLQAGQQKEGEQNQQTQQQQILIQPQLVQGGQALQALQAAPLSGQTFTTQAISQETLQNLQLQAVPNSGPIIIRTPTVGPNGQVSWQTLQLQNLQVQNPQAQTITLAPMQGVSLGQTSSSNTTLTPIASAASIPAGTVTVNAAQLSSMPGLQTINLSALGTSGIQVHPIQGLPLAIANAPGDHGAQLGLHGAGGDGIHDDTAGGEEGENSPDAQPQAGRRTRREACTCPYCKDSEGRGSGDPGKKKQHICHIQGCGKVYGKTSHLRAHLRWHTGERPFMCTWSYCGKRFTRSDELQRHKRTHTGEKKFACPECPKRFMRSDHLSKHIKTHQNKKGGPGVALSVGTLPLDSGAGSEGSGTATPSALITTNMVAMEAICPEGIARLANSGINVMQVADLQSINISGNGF
UniProt Q14258: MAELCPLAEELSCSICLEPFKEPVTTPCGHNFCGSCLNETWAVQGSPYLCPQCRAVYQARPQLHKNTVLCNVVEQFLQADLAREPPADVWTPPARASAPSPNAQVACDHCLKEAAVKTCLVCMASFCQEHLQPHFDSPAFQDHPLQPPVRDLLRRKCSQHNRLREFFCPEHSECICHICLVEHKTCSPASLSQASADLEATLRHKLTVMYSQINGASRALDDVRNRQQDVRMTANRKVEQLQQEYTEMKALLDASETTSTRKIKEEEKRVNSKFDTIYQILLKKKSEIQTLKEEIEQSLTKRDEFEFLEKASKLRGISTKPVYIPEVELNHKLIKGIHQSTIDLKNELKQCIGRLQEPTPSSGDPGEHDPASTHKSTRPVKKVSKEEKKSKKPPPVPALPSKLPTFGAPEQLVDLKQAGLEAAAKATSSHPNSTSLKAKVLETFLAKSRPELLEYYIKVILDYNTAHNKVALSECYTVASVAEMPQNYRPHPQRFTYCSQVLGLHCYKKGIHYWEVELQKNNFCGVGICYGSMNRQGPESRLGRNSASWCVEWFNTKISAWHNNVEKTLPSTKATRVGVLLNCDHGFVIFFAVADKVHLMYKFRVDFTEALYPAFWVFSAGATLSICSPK

Target: SP1 (human (endogenous in BGC823 and SGC7901)) (UniProt P08047)
Assay: co-IP; endogenous proteins in BGC823 and SGC7901 lysates; cells pre-treated with MG132 (10 uM) for 6 h; IP with anti-TRIM25 or anti-SP1 polyclonal antibodies, protein A/G agarose beads, Western blotting

Q: TRIM25 (from UniProt Q14258 1-630) was tested. Which binding did it give?
A: binds
